Measured values: the supplement of paper PMC10077471
Whole data set: some 1,900 compounds, median “excess over highest single agent (ExcessHSA) synergy score, 6x6 matrix” near -83, cut for the lowest 2% near -370. The list shows a part of the results.

Each molecule was assayed on NCI-H446 (assay: excess over highest single agent (ExcessHSA) synergy score, 6x6 matrix; higher = less synergy (more negative = stronger synergy)). Conditions: 72 h; CellTiter-Glo viability.
For CN1N=C(N)c2cn([C@@H]3O[C@H](COP(=O)(O)O)[C@@H](O)[C@H]3O)c3ncnc1c23 + Cc1sc2c(c1C)C(c1ccc(Cl)cc1)=N[C@@H](CC(=O)OC(C)(C)C)c1nnc(C)n1-2 [NCGC00250412-19], the “excess over highest single agent” value was -229.
In the case of COc1cc2c(Oc3ccc(NC(=O)C4(C(=O)Nc5ccc(F)cc5)CC4)cc3F)ccnc2cc1OCCCN1CCOCC1 + Cc1sc2c(c1C)C(c1ccc(Cl)cc1)=N[C@@H](CC(=O)OC(C)(C)C)c1nnc(C)n1-2 [NCGC00250412-19], the “excess over highest single agent” value is reported as -170.
In the case of C[S+]([O-])c1ccc(-c2nc(-c3ccc(F)cc3)c(-c3ccncc3)[nH]2)cc1 (stereo not given) + Cc1sc2c(c1C)C(c1ccc(Cl)cc1)=N[C@@H](CC(=O)OC(C)(C)C)c1nnc(C)n1-2 [NCGC00250412-19], the “excess over highest single agent” value is reported as 44.9.
For CC(=O)NCCC(=O)N[C@@H](CCC(N)=O)C(=O)N[C@@H](CO)C(=O)N[C@@H](CCC(N)=O)C(=O)N[C@@H](CCC(N)=O)C(=O)N[C@H](C(=O)N[C@@H](Cc1ccccc1)C(=O)N[C@]1(C)CCCCCCC=CCCC[C@@](C)(C(=O)N[C@@H](CCC(N)=O)C(=O)N[C@@H](CC(N)=O)C(N)=O)NC(=O)[C@H](CC(C)C)NC(=O)[C@H](CC(C)C)NC(=O)[C@@H](CCCNC(=N)N)NC(=O)[C@H](Cc2c[nH]c3ccccc23)NC(=O)[C@H](CC(C)C)NC(=O)[C@H](CC(N)=O)NC1=O)[C@H](C)O + Cc1sc2c(c1C)C(c1ccc(Cl)cc1)=N[C@@H](CC(=O)OC(C)(C)C)c1nnc(C)n1-2 [NCGC00250412-19], the “excess over highest single agent” value was -32.1.
For Nc1ncnc2ccccc12 + Cc1sc2c(c1C)C(c1ccc(Cl)cc1)=N[C@@H](CC(=O)OC(C)(C)C)c1nnc(C)n1-2 [NCGC00250412-19], the “excess over highest single agent” value was 79.3.
In the case of CC1=NN(c2ccccc2)C(=O)C1 + Cc1sc2c(c1C)C(c1ccc(Cl)cc1)=N[C@@H](CC(=O)OC(C)(C)C)c1nnc(C)n1-2 [NCGC00250412-19], the “excess over highest single agent” value is reported as -110.
For Cn1cnc2c1c(=O)[nH]c(=O)n2C + Cc1sc2c(c1C)C(c1ccc(Cl)cc1)=N[C@@H](CC(=O)OC(C)(C)C)c1nnc(C)n1-2 [NCGC00250412-19], the “excess over highest single agent” value was -51.3.
CCC[C@@H]1C[C@@H](C(=O)N[C@@H]([C@H]2O[C@H](SC)[C@H](O)[C@@H](O)[C@H]2O)[C@H](C)Cl)N(C)C1 + Cc1sc2c(c1C)C(c1ccc(Cl)cc1)=N[C@@H](CC(=O)OC(C)(C)C)c1nnc(C)n1-2 [NCGC00250412-19] was tested, and the “excess over highest single agent” value was 41.8.
For Nc1ncnc2c1nc(Cl)n2[C@@H]1O[C@H](CO)[C@@H](O)[C@H]1O + Cc1sc2c(c1C)C(c1ccc(Cl)cc1)=N[C@@H](CC(=O)OC(C)(C)C)c1nnc(C)n1-2 [NCGC00250412-19], the “excess over highest single agent” value was -61.2.
CO[C@H]1/C=C\C=C(/C)C(=O)NC2=CC(=O)C(NCCN(C)C)=C(C[C@@H](C)C[C@H](OC)[C@H](O)[C@@H](C)/C=C(\C)[C@@H]1OC(N)=O)C2=O + Cc1sc2c(c1C)C(c1ccc(Cl)cc1)=N[C@@H](CC(=O)OC(C)(C)C)c1nnc(C)n1-2 [NCGC00250412-19] was tested, and the “excess over highest single agent” value was -331.
With O=C(N[C@H](CO)[C@H](O)c1ccc([N+](=O)[O-])cc1)C(Cl)Cl + Cc1sc2c(c1C)C(c1ccc(Cl)cc1)=N[C@@H](CC(=O)OC(C)(C)C)c1nnc(C)n1-2 [NCGC00250412-19] the “excess over highest single agent” value was 70.4.
For CCCCCNC(=O)N1CCC(CN(Cc2ccc(Cl)cc2)Cc2ccc([N+](=O)[O-])s2)C1 (stereo not given) + Cc1sc2c(c1C)C(c1ccc(Cl)cc1)=N[C@@H](CC(=O)OC(C)(C)C)c1nnc(C)n1-2 [NCGC00250412-19], the “excess over highest single agent” value was 15.1.
Cc1c(C(=O)Nc2cccc(C(F)(F)F)c2)cc(-c2ccccc2)n1CCCN1CCOCC1 + Cc1sc2c(c1C)C(c1ccc(Cl)cc1)=N[C@@H](CC(=O)OC(C)(C)C)c1nnc(C)n1-2 [NCGC00250412-19] was tested, and the “excess over highest single agent” value was -146.
In the case of CNC1[C@H](O)C(O[C@@H]2C(O)C(O[C@H]3O[C@H]([C@@H](C)NC)CC[C@H]3N)[C@@H](N)C[C@H]2N)OC[C@]1(C)O (stereo not given in full) + Cc1sc2c(c1C)C(c1ccc(Cl)cc1)=N[C@@H](CC(=O)OC(C)(C)C)c1nnc(C)n1-2 [NCGC00250412-19], the “excess over highest single agent” value is reported as -204.
In the case of NC(=O)c1cccc(-c2cc(Nc3ccc(OC(F)(F)F)cc3)ncn2)c1 + Cc1sc2c(c1C)C(c1ccc(Cl)cc1)=N[C@@H](CC(=O)OC(C)(C)C)c1nnc(C)n1-2 [NCGC00250412-19], the “excess over highest single agent” value is reported as -50.4.
In the case of CC1=C(CC/C(C)=C/CCC2=CC[C@H](C3=CC(=O)O[C@H]3O)O[C@H]2O)C(C)(C)CCC1 + Cc1sc2c(c1C)C(c1ccc(Cl)cc1)=N[C@@H](CC(=O)OC(C)(C)C)c1nnc(C)n1-2 [NCGC00250412-19], the “excess over highest single agent” value is reported as -147.
With O=C1CSC(=O)N1C(CCc1ccncc1)COc1ccc(-c2cccc([N+](=O)[O-])c2)cc1 (stereo not given) + Cc1sc2c(c1C)C(c1ccc(Cl)cc1)=N[C@@H](CC(=O)OC(C)(C)C)c1nnc(C)n1-2 [NCGC00250412-19] the “excess over highest single agent” value was -96.7.
CC1(C)O[C@H]2CC(=O)OC[C@]23[C@H]2CC[C@@]4(C)[C@H](c5ccoc5)OC(=O)[C@H]5O[C@]54[C@]2(C)C(=O)C[C@@H]13 + Cc1sc2c(c1C)C(c1ccc(Cl)cc1)=N[C@@H](CC(=O)OC(C)(C)C)c1nnc(C)n1-2 [NCGC00250412-19] was tested, and the “excess over highest single agent” value was -232.
In the case of CC(C)C[C@@H](C(=O)N[C@H](C(=O)OC1CCCC1)c1ccccc1)[C@H](O)C(=O)NO + Cc1sc2c(c1C)C(c1ccc(Cl)cc1)=N[C@@H](CC(=O)OC(C)(C)C)c1nnc(C)n1-2 [NCGC00250412-19], the “excess over highest single agent” value is reported as 245.
In the case of CCCCCCCCCCCCCCCCCCCCCCO + Cc1sc2c(c1C)C(c1ccc(Cl)cc1)=N[C@@H](CC(=O)OC(C)(C)C)c1nnc(C)n1-2 [NCGC00250412-19], the “excess over highest single agent” value is reported as -117.
NS(=O)(=O)c1ccc(NC2=CC(=O)c3ccccc3C2=O)cc1 + Cc1sc2c(c1C)C(c1ccc(Cl)cc1)=N[C@@H](CC(=O)OC(C)(C)C)c1nnc(C)n1-2 [NCGC00250412-19] was tested, and the “excess over highest single agent” value was -112.
With CN1c2ccccc2C(=O)N2CCc3c([nH]c4ccccc34)[C@@H]21 + Cc1sc2c(c1C)C(c1ccc(Cl)cc1)=N[C@@H](CC(=O)OC(C)(C)C)c1nnc(C)n1-2 [NCGC00250412-19] the “excess over highest single agent” value was -226.
With CN(N=O)C(=O)N[C@@H]1[C@@H](O)[C@H](O)[C@@H](CO)O[C@@H]1O + Cc1sc2c(c1C)C(c1ccc(Cl)cc1)=N[C@@H](CC(=O)OC(C)(C)C)c1nnc(C)n1-2 [NCGC00250412-19] the “excess over highest single agent” value was -18.6.
With CCCCCCOC(=O)NC(=N)c1ccc(NCc2nc3cc(C(=O)N(CCC(=O)OCC)c4ccccn4)ccc3n2C)cc1 + Cc1sc2c(c1C)C(c1ccc(Cl)cc1)=N[C@@H](CC(=O)OC(C)(C)C)c1nnc(C)n1-2 [NCGC00250412-19] the “excess over highest single agent” value was -41.3.
In the case of CN[C@@H]1[C@H](O)[C@H](NC)[C@H]2O[C@@]3(O)C(=O)C[C@@H](C)O[C@H]3O[C@@H]2[C@H]1O + Cc1sc2c(c1C)C(c1ccc(Cl)cc1)=N[C@@H](CC(=O)OC(C)(C)C)c1nnc(C)n1-2 [NCGC00250412-19], the “excess over highest single agent” value is reported as -111.
NS(=O)(=O)c1cc2c(cc1Cl)NC(C(Cl)Cl)NS2(=O)=O (stereo not given) + Cc1sc2c(c1C)C(c1ccc(Cl)cc1)=N[C@@H](CC(=O)OC(C)(C)C)c1nnc(C)n1-2 [NCGC00250412-19] was tested, and the “excess over highest single agent” value was -193.
With COc1ccc(Cn2ccc3ccc(C(=O)NO)cc32)cc1 + Cc1sc2c(c1C)C(c1ccc(Cl)cc1)=N[C@@H](CC(=O)OC(C)(C)C)c1nnc(C)n1-2 [NCGC00250412-19] the “excess over highest single agent” value was -152.
For C#Cc1cccc(Nc2ncnc3cc(OCCOC)c(OCCOC)cc23)c1 + Cc1sc2c(c1C)C(c1ccc(Cl)cc1)=N[C@@H](CC(=O)OC(C)(C)C)c1nnc(C)n1-2 [NCGC00250412-19], the “excess over highest single agent” value was 140.
In the case of Cc1onc(-c2ccccc2Cl)c1C(=O)N[C@@H]1C(=O)N2[C@@H]1SC(C)(C)[C@@H]2C(=O)O + Cc1sc2c(c1C)C(c1ccc(Cl)cc1)=N[C@@H](CC(=O)OC(C)(C)C)c1nnc(C)n1-2 [NCGC00250412-19], the “excess over highest single agent” value is reported as -42.3.
For COc1ccccc1-c1cccc(-c2c(O)c3cc(C#N)c(Cl)cc3[nH]c2=O)c1 + Cc1sc2c(c1C)C(c1ccc(Cl)cc1)=N[C@@H](CC(=O)OC(C)(C)C)c1nnc(C)n1-2 [NCGC00250412-19], the “excess over highest single agent” value was -15.9.
